PubChem BioAssay AID743121 | NCATS – 2013

Aim: 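Partners whose loss is lethal together with topoisomerase I blockade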 (primary screen)
Cells: MDA-MB-231 cells, a human breast cancer line
Reagent: single siRNA against human genes, 20 nM siRNA (0.8 pmol per well)
Timing: 120 h (drug added 48 h after transfection, read 72 h later)
Challenge: camptothecin 20 nM (about EC30) for 72 h; vehicle 0.1% DMSO in parallel plates
Detection: 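Cell viability by ATP luminescence (CellTiter-Glo) as % of non-targeting siRNA wells, and the log2 ratio of viability without drug over viability with camptothecin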
Reading the numbers: log2 vehicle/camptothecin viability: higher = stronger sensitisation to camptothecin; viability with camptothecin and viability without drug: higher = more viable cells
Call rule: 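Active genes have an RSA gene-level p-value below 0.001, computed from the ratios of their separate siRNAs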
The whole screen tested about 26,000 reagents; shown is a random part of them. Of all reagents, 167 (0.63%) are marked active. 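Calls are per gene from RSA p-values that are not deposited; an individual active-marked siRNA can sensitise only weakly.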

| Target gene | PubChem SID | log2 vehicle/camptothecin viability | viability with camptothecin (% of control) | viability without drug (% of control) | Call |
| --- | --- | --- | --- | --- | --- |
| MRPL23 | SID164385991 | -0.453 | 96.6 | 70.6 | inactive |
| MRPL23 | SID164385993 | 0.0649 | 81.1 | 84.8 | inactive |
| MRPL23 | SID164385994 | -0.443 | 56.9 | 41.9 | inactive |
| MRPL23 | SID164385995 | -0.283 | 79.4 | 65.3 | inactive |
| NTSR1 | SID164378637 | -0.0176 | 63.4 | 62.6 | inactive |
| NTSR1 | SID164378638 | 0.459 | 43.9 | 60.3 | inactive |
| NTSR1 | SID164378639 | -0.0255 | 61.3 | 60.3 | inactive |
| NTSR1 | SID164378641 | 0.0909 | 58.7 | 62.5 | inactive |
| TNNT2 | SID164392271 | -0.24 | 74.5 | 63.1 | inactive |
| TNNT2 | SID164392274 | -0.249 | 41.6 | 35 | inactive |
| TNNT2 | SID164392277 | -0.132 | 79.1 | 72.2 | inactive |
| FAM89B | SID164449198 | -0.0703 | 97.8 | 93.2 | inactive |
| FAM89B | SID164449200 | 0.347 | 20.3 | 25.9 | inactive |
| FAM89B | SID164449202 | -0.286 | 73.2 | 60.1 | inactive |
| FAM89B | SID164449204 | -0.49 | 26.4 | 18.8 | inactive |
| CSF2 | SID164359991 | 0.239 | 74.9 | 88.4 | inactive |
| CSF2 | SID164359992 | -0.292 | 68.9 | 56.3 | inactive |
| CSF2 | SID164359993 | -0.772 | 56.8 | 33.2 | inactive |
| CSF2 | SID164359996 | -0.108 | 73.4 | 68.1 | inactive |
| B4GALT1 | SID164366484 | -0.557 | 88.8 | 60.4 | inactive |
| B4GALT1 | SID164366488 | -0.249 | 94.8 | 79.8 | inactive |
| ARSD | SID164354216 | -0.262 | 72.6 | 60.6 | inactive |
| ARSD | SID164354217 | -0.0878 | 39.9 | 37.6 | inactive |
| ARSD | SID164354223 | -0.233 | 91.4 | 77.8 | inactive |
| ARSD | SID164354224 | 0.42 | 63.4 | 84.8 | inactive |
| TP53I11 | SID164404414 | -0.235 | 65.2 | 55.4 | inactive |
| TP53I11 | SID164404416 | -0.0252 | 83.9 | 82.4 | inactive |
| TP53I11 | SID164404417 | -0.0268 | 52.7 | 51.8 | inactive |
| TP53I11 | SID164404419 | -0.229 | 89.4 | 76.3 | inactive |

7 entries already listed, ordered by “log2 vehicle/camptothecin viability”, ascending:
| Target gene | PubChem SID | log2 vehicle/camptothecin viability | viability with camptothecin (% of control) | viability without drug (% of control) | Call |
| --- | --- | --- | --- | --- | --- |
| B4GALT1 | SID164366484 | -0.557 | 88.8 | 60.4 | inactive |
| ARSD | SID164354216 | -0.262 | 72.6 | 60.6 | inactive |
| B4GALT1 | SID164366488 | -0.249 | 94.8 | 79.8 | inactive |
| TP53I11 | SID164404414 | -0.235 | 65.2 | 55.4 | inactive |
| ARSD | SID164354223 | -0.233 | 91.4 | 77.8 | inactive |
| ARSD | SID164354217 | -0.0878 | 39.9 | 37.6 | inactive |
| ARSD | SID164354224 | 0.42 | 63.4 | 84.8 | inactive |

More reagents follow.
| Target gene | PubChem SID | log2 vehicle/camptothecin viability | viability with camptothecin (% of control) | viability without drug (% of control) | Call |
| --- | --- | --- | --- | --- | --- |
| PHOSPHO1 | SID164579106 | -0.325 | 82.3 | 65.7 | inactive |
| PHOSPHO1 | SID164579107 | -0.578 | 89.2 | 59.7 | inactive |
| PHOSPHO1 | SID164579109 | 0.203 | 39.1 | 45 | inactive |
| PHOSPHO1 | SID164579110 | -0.478 | 59 | 42.3 | inactive |
| ECEL1 | SID164403730 | 0.316 | 30 | 37.3 | inactive |
| ECEL1 | SID164403731 | 0.151 | 49.7 | 55.2 | inactive |
| ECEL1 | SID164403732 | -0.205 | 65.8 | 57 | inactive |
| ECEL1 | SID164403734 | -0.146 | 86.9 | 78.5 | inactive |
| PTBP3 | SID164407915 | -0.00819 | 64.5 | 64.2 | inactive |
| PTBP3 | SID164407917 | -0.232 | 105 | 89.5 | inactive |
| PTBP3 | SID164407921 | -0.0165 | 89.5 | 88.5 | inactive |
| PTBP3 | SID164407923 | -0.136 | 99.4 | 90.5 | inactive |
| CLIC2 | SID164358737 | -0.17 | 113 | 100 | inactive |
| CLIC2 | SID164358739 | -0.12 | 56.3 | 51.8 | inactive |
| CLIC2 | SID164358740 | -0.06 | 86.7 | 83.1 | inactive |
| KCNH1 | SID164372416 | 0.966 | 52.3 | 102 | inactive |
| KCNH1 | SID164372417 | -0.348 | 75 | 58.9 | inactive |
| KCNH1 | SID164372418 | 0.232 | 53.5 | 62.8 | inactive |
| KCNH1 | SID164372419 | 0.22 | 34.1 | 39.7 | inactive |
| ACE2 | SID164498330 | -0.063 | 65.6 | 62.8 | inactive |
| ACE2 | SID164498333 | -0.00817 | 105 | 104 | inactive |
| ACE2 | SID164498334 | -0.216 | 84.2 | 72.5 | inactive |
| ACE2 | SID164498335 | -0.615 | 58.6 | 38.3 | inactive |
| SNRPD1 | SID164389094 | -0.117 | 116 | 107 | inactive |
| SNRPD1 | SID164389096 | -0.0749 | 98.3 | 93.4 | inactive |
| SNRPD1 | SID164389097 | -0.664 | 54 | 34.1 | inactive |
| NAA16 | SID164532064 | -0.0802 | 87.6 | 82.8 | inactive |
| NAA16 | SID164532074 | 0.00221 | 104 | 105 | inactive |
| NAA16 | SID164532075 | -0.31 | 129 | 104 | inactive |
| NAA16 | SID164532076 | -0.36 | 58.2 | 45.3 | inactive |
| USP38 | SID164545981 | 0.391 | 44.8 | 58.7 | inactive |
| USP38 | SID164545983 | 0.0816 | 89.8 | 95.1 | inactive |
| USP38 | SID164545984 | -0.163 | 49.6 | 44.3 | inactive |
| USP38 | SID164545985 | -0.522 | 66.6 | 46.4 | inactive |
| CTSK | SID164360497 | 0.37 | 36.8 | 47.5 | inactive |
| CTSK | SID164360498 | -0.791 | 59.9 | 34.6 | inactive |
| CTSK | SID164360499 | -0.296 | 76 | 61.9 | inactive |
| CTNNAL1 | SID164399480 | -0.134 | 109 | 99.7 | inactive |
| CTNNAL1 | SID164399481 | -0.12 | 115 | 106 | inactive |
| CTNNAL1 | SID164399484 | -0.278 | 90.8 | 74.8 | inactive |
| CTNNAL1 | SID164399486 | -0.445 | 125 | 92 | inactive |
